US20110021367A1 (INDIAN INSTITUTE OF SCIENCE, published 2011)
These are yes or no findings as the source states them, for the method shown. Some results given as binding are weak or reduced against the parent protein; the word gives no strength. For some of these results: Tags and fused reporters may be left off the sequences shown.

Chains of the proteins cited; added tags and fusions are not shown. Residues count along the entry.
UniProt P9WGX5, residues 1-90: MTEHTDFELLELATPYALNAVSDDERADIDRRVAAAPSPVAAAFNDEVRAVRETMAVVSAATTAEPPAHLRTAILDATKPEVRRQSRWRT

Assays:
[1] = biological target: T1, σ^K (M. tuberculosis sigma factor K, Rv0445c) (Mycobacterium tuberculosis) (UniProt P9WGH7); experiment: co-expression in E. coli, purified complex on SDS-PAGE
T1 sequence: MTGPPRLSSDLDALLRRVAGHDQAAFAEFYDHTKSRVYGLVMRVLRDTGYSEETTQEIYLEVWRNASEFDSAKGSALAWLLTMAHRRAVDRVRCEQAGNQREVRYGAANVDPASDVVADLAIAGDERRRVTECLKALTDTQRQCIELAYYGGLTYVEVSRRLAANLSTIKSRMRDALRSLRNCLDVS

[2] = biological target: T2, RsbW (M. tuberculosis anti-σ^F factor) (Mycobacterium tuberculosis) (UniProt P9WGX7); experiment: complex from co-expression in E. coli, separated by SDS-PAGE
T2 sequence: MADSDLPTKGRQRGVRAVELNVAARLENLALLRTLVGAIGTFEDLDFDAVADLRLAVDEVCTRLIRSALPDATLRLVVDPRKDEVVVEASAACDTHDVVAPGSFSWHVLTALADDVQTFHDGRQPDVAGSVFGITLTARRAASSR

[3] = biological target: T3, σ^F (M. tuberculosis sigma factor F, Rv3286c) (Mycobacterium tuberculosis) (UniProt P9WGI3); experiment: co-expression in E. coli, purified complex on SDS-PAGE
T3 sequence: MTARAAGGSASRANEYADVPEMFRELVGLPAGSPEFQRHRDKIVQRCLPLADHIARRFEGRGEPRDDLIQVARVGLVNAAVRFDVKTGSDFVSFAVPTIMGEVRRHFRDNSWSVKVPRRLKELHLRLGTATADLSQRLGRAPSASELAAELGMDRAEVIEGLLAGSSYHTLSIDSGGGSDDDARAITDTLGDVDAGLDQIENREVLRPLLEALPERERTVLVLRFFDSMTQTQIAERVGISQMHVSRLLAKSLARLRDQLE

[4] = biological target: Rv0444c (M. tuberculosis anti-σ^K factor) (Mycobacterium tuberculosis) (UniProt P9WGX5); experiment: complex from co-expression in E. coli, separated by SDS-PAGE

Rv0444c (M. tuberculosis anti-σ^K factor) (from UniProt P9WGX5 1-90)
binding [1]: binds

B1: σ^F (M. tuberculosis sigma factor F, Rv3286c) (protein)
chain: T3 sequence
binding [2]: binds

B2: RsbW (M. tuberculosis anti-σ^F factor) (protein)
chain: T2 sequence
binding [3]: binds

B3: σ^K (M. tuberculosis sigma factor K, Rv0445c) (protein)
chain: T1 sequence
binding [4]: binds
